Test results reported in the supplement of paper PMC8728848.
Some of the results follow.

What was measured:
Assay in all cases: glycan array binding signal (z-score within array); higher = stronger binding
Conditions in all cases: glycan notation: IUPAC condensed, linker removed
[1] = molecular target: Gal(b1-4)Glc
Procedure, shortened: (§1)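 From the Consortium for Functional Glycomics database, 3228 arrays were curated, keeping only those whose protein sequence was available. Binding is given as a within-array Z-score averaged across arrays sharing a protein sequence and across linkers. Negative Z-scores can be read as non-binding.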

[2] = molecular target: Gal(b1-4)Glc6S
Procedure, shortened: as §1

[3] = molecular target: Gal(b1-4)GlcNAc
Procedure, shortened: as §1

[4] = molecular target: Gal(b1-4)GlcNAc(a1-6)Gal(b1-4)GlcNAc
Procedure, shortened: as §1

[5] = molecular target: Gal(b1-4)GlcNAc(b1-2)Man
Procedure, shortened: as §1

[6] = molecular target: Gal(b1-4)GlcNAc(b1-2)Man(a1-3)Man(b1-4)GlcNAc(b1-4)GlcNAc
Procedure, shortened: as §1

[7] = molecular target: Gal(b1-4)GlcNAc(b1-2)Man(a1-3)[Gal(b1-4)GlcNAc(b1-2)Man(a1-6)]Man(b1-4)GlcNAc(b1-4)GlcNAc
Procedure, shortened: as §1

[8] = molecular target: Gal(b1-4)GlcNAc(b1-2)Man(a1-3)[Gal(b1-4)GlcNAc(b1-2)Man(a1-6)]Man(b1-4)GlcNAc(b1-4)[Fuc(a1-6)]GlcNAc
Procedure, shortened: as §1

[9] = molecular target: Gal(b1-4)GlcNAc(b1-2)Man(a1-3)[Gal(b1-4)GlcNAc(b1-2)Man(a1-6)][Gal(b1-4)GlcNAc(b1-4)]Man(b1-4)GlcNAc(b1-4)[Fuc(a1-6)]GlcNAc
Procedure, shortened: as §1

[10] = molecular target: Gal(b1-4)GlcNAc(b1-2)Man(a1-3)[Gal(b1-4)GlcNAc(b1-2)Man(a1-6)][GlcNAc(b1-4)]Man(b1-4)GlcNAc(b1-4)[Fuc(a1-6)]GlcNAc
Procedure, shortened: as §1

[11] = molecular target: Gal(b1-4)GlcNAc(b1-2)Man(a1-3)[GlcNAc(b1-2)Man(a1-6)]Man(b1-4)GlcNAc(b1-4)GlcNAc
Procedure, shortened: as §1

[12] = molecular target: Gal(b1-4)GlcNAc(b1-2)Man(a1-3)[GlcNAc(b1-4)][Gal(b1-4)GlcNAc(b1-2)Man(a1-6)]Man(b1-4)GlcNAc(b1-4)GlcNAc
Procedure, shortened: as §1

[13] = molecular target: Gal(b1-4)GlcNAc(b1-2)Man(a1-3)[Man(a1-6)]Man(b1-4)GlcNAc(b1-4)GlcNAc
Procedure, shortened: as §1

[14] = molecular target: Gal(b1-4)GlcNAc(b1-2)Man(a1-6)Man(b1-4)GlcNAc(b1-4)GlcNAc
Procedure, shortened: as §1

[15] = molecular target: Gal(b1-4)GlcNAc(b1-2)Man(a1-6)[GlcNAc(b1-2)Man(a1-3)]Man(b1-4)GlcNAc(b1-4)GlcNAc
Procedure, shortened: as §1

[16] = molecular target: Gal(b1-4)GlcNAc(b1-2)Man(a1-6)[Man(a1-3)]Man(b1-4)GlcNAc(b1-4)GlcNAc
Procedure, shortened: as §1

[17] = molecular target: Gal(b1-4)GlcNAc(b1-2)[Gal(b1-4)GlcNAc(b1-4)]Man(a1-3)[Gal(b1-4)GlcNAc(b1-2)Man(a1-6)]Man(b1-4)GlcNAc(b1-4)GlcNAc
Procedure, shortened: as §1

[18] = molecular target: Gal(b1-4)GlcNAc(b1-2)[Gal(b1-4)GlcNAc(b1-4)]Man(a1-3)[Gal(b1-4)GlcNAc(b1-2)[Gal(b1-4)GlcNAc(b1-6)]Man(a1-6)]Man(b1-4)GlcNAc(b1-4)GlcNAc
Procedure, shortened: as §1

[19] = molecular target: Gal(b1-4)GlcNAc(b1-2)[Gal(b1-4)GlcNAc(b1-4)]Man(a1-3)[GlcNAc(b1-4)][Gal(b1-4)GlcNAc(b1-2)Man(a1-6)]Man(b1-4)GlcNAc(b1-4)GlcNAc
Procedure, shortened: as §1

[20] = molecular target: Gal(b1-4)GlcNAc(b1-2)[Gal(b1-4)GlcNAc(b1-4)]Man(a1-3)[GlcNAc(b1-4)][Gal(b1-4)GlcNAc(b1-2)[Gal(b1-4)GlcNAc(b1-6)]Man(a1-6)]Man(b1-4)GlcNAc(b1-4)GlcNAc
Procedure, shortened: as §1

[21] = molecular target: Gal(b1-4)GlcNAc(b1-2)[Gal(b1-4)GlcNAc(b1-6)]Man(a1-6)[Gal(b1-4)GlcNAc(b1-2)Man(a1-3)]Man(b1-4)GlcNAc(b1-4)GlcNAc
Procedure, shortened: as §1

[22] = molecular target: Gal(b1-4)GlcNAc(b1-2)[Gal(b1-4)GlcNAc(b1-6)]Man(a1-6)[Gal(b1-4)GlcNAc(b1-2)Man(a1-3)]Man(b1-4)GlcNAc(b1-4)[Fuc(a1-6)]GlcNAc
Procedure, shortened: as §1

[23] = molecular target: Gal(b1-4)GlcNAc(b1-2)[Gal(b1-4)GlcNAc(b1-6)]Man(a1-6)[GlcNAc(b1-4)][Gal(b1-4)GlcNAc(b1-2)Man(a1-3)]Man(b1-4)GlcNAc(b1-4)GlcNAc
Procedure, shortened: as §1

[24] = molecular target: Gal(b1-4)GlcNAc(b1-2)[Gal(b1-4)GlcNAc(b1-6)]Man(a1-6)[GlcNAc(b1-4)][Gal(b1-4)GlcNAc(b1-2)[Gal(b1-4)GlcNAc(b1-4)]Man(a1-3)]Man(b1-4)GlcNAc(b1-4)[Fuc(a1-6)]GlcNAc
Procedure, shortened: as §1

[25] = molecular target: Gal(b1-4)GlcNAc(b1-3)Gal(b1-3)GalNAc
Procedure, shortened: as §1

[26] = molecular target: Gal(b1-4)GlcNAc(b1-3)Gal(b1-3)GlcNAc
Procedure, shortened: as §1

[27] = molecular target: Gal(b1-4)GlcNAc(b1-3)Gal(b1-4)Glc
Procedure, shortened: as §1

[28] = molecular target: Gal(b1-4)GlcNAc(b1-3)Gal(b1-4)GlcNAc
Procedure, shortened: as §1

[29] = molecular target: Gal(b1-4)GlcNAc(b1-3)Gal(b1-4)GlcNAc(b1-2)Man(a1-3)[Gal(b1-4)GlcNAc(b1-3)Gal(b1-4)GlcNAc(b1-2)Man(a1-6)]Man(b1-4)GlcNAc(b1-4)GlcNAc
Procedure, shortened: as §1

[30] = molecular target: Gal(b1-4)GlcNAc(b1-3)Gal(b1-4)GlcNAc(b1-2)Man(a1-3)[Gal(b1-4)GlcNAc(b1-3)Gal(b1-4)GlcNAc(b1-2)Man(a1-6)]Man(b1-4)GlcNAc(b1-4)[Fuc(a1-6)]GlcNAc
Procedure, shortened: as §1

[31] = molecular target: Gal(b1-4)GlcNAc(b1-3)Gal(b1-4)GlcNAc(b1-2)[Gal(b1-4)GlcNAc(b1-3)Gal(b1-4)GlcNAc(b1-6)]Man(a1-6)[Gal(b1-4)GlcNAc(b1-3)Gal(b1-4)GlcNAc(b1-2)Man(a1-3)]Man(b1-4)GlcNAc(b1-4)GlcNAc
Procedure, shortened: as §1

[32] = molecular target: Gal(b1-4)GlcNAc(b1-3)Gal(b1-4)GlcNAc(b1-2)[Gal(b1-4)GlcNAc(b1-3)Gal(b1-4)GlcNAc(b1-6)]Man(a1-6)[Gal(b1-4)GlcNAc(b1-3)Gal(b1-4)GlcNAc(b1-2)Man(a1-3)]Man(b1-4)GlcNAc(b1-4)[Fuc(a1-6)]GlcNAc
Procedure, shortened: as §1

[33] = molecular target: Gal(b1-4)GlcNAc(b1-3)Gal(b1-4)GlcNAc(b1-3)Gal(b1-4)GlcNAc
Procedure, shortened: as §1

[34] = molecular target: Gal(b1-4)GlcNAc(b1-3)Gal(b1-4)GlcNAc(b1-3)Gal(b1-4)GlcNAc(b1-2)Man(a1-3)[Gal(b1-4)GlcNAc(b1-3)Gal(b1-4)GlcNAc(b1-3)Gal(b1-4)GlcNAc(b1-2)Man(a1-6)]Man(b1-4)GlcNAc(b1-4)GlcNAc
Procedure, shortened: as §1

[35] = molecular target: Gal(b1-4)GlcNAc(b1-3)Gal(b1-4)GlcNAc(b1-3)Gal(b1-4)GlcNAc(b1-2)Man(a1-3)[Gal(b1-4)GlcNAc(b1-3)Gal(b1-4)GlcNAc(b1-3)Gal(b1-4)GlcNAc(b1-2)Man(a1-6)]Man(b1-4)GlcNAc(b1-4)[Fuc(a1-6)]GlcNAc
Procedure, shortened: as §1

[36] = molecular target: Gal(b1-4)GlcNAc(b1-3)Gal(b1-4)GlcNAc(b1-3)Gal(b1-4)GlcNAc(b1-2)[Gal(b1-4)GlcNAc(b1-3)Gal(b1-4)GlcNAc(b1-3)Gal(b1-4)GlcNAc(b1-6)]Man(a1-6)[Gal(b1-4)GlcNAc(b1-3)Gal(b1-4)GlcNAc(b1-3)Gal(b1-4)GlcNAc(b1-2)Man(a1-3)]Man(b1-4)GlcNAc(b1-4)[Fuc(a1-6)]GlcNAc
Procedure, shortened: as §1

[37] = molecular target: Gal(b1-4)GlcNAc(b1-3)Gal(b1-4)GlcNAc(b1-3)Gal(b1-4)GlcNAc(b1-3)Gal(b1-4)GlcNAc(b1-2)Man(a1-3)[Gal(b1-4)GlcNAc(b1-3)Gal(b1-4)GlcNAc(b1-3)Gal(b1-4)GlcNAc(b1-3)Gal(b1-4)GlcNAc(b1-2)Man(a1-6)]Man(b1-4)GlcNAc(b1-4)GlcNAc
Procedure, shortened: as §1

B1: GS13599A-bth-520-23-520 (Bacteroides thetaiotaomicron) (protein)
chain: SEDTMDRINKDHDHTTSVASRFILADVITSTAFSNASGDINTYASSYIEYEVGVDNQLYYAEVRENEPSSSSTFNNSWNGIYSSLKNARIIIDQCGEGGRDHGNDVTRGMAEVMAAYNCALIADFFGDAPCSQAALVDEKGSPVYMTPKMDTQQEIYTQIISYLDDAIANLQKEDLADVTEQDFLYAGDADKWLKFAYGLKARYTMRLINRSSNKSADYEKVLDYVSKSFTSADDQAAFDIYDSNNINPFYGFYNSRAGFGASTSLGTKLLAYNDPRANRAFFTPIVDKKRSQVAANDPSLVPAPNGSPDQSTSKYGISAFVYAKTAPTLLMSYHELMFLKAEALCRLNRDAEDALKEAVVAGLLNAENSISIAIKELGSGLNTNSSEVITETSAGKYFDDVVKAKYAANPLQETMIQKYLAMWGASGEATETYNDFRRMKGLNENFITLTNPNNSSKFPLRYPYGNSDTAANPEVKAAYGNGDYVYSEPVWWAGGSR
- glycan array binding signal (z-score) [1]: -0.435
- glycan array binding signal (z-score) [2]: 0.472
- glycan array binding signal (z-score) [3]: -0.072
- glycan array binding signal (z-score) [4]: -1.2
- glycan array binding signal (z-score) [5]: 2.44
- glycan array binding signal (z-score) [6]: 0.838
- glycan array binding signal (z-score) [7]: -0.035
- glycan array binding signal (z-score) [8]: 0.794
- glycan array binding signal (z-score) [9]: 1.17
- glycan array binding signal (z-score) [10]: -0.861
- glycan array binding signal (z-score) [11]: 0.298
- glycan array binding signal (z-score) [12]: -0.86
- glycan array binding signal (z-score) [13]: 1.74
- glycan array binding signal (z-score) [14]: -0.356
- glycan array binding signal (z-score) [15]: -0.894
- glycan array binding signal (z-score) [16]: -0.256
- glycan array binding signal (z-score) [17]: -0.172
- glycan array binding signal (z-score) [18]: -0.453
- glycan array binding signal (z-score) [19]: -0.486
- glycan array binding signal (z-score) [20]: -0.119
- glycan array binding signal (z-score) [21]: 1.27
- glycan array binding signal (z-score) [22]: 0.42
- glycan array binding signal (z-score) [23]: -0.696
- glycan array binding signal (z-score) [24]: -0.585
- glycan array binding signal (z-score) [25]: -0.443
- glycan array binding signal (z-score) [26]: 0.512
- glycan array binding signal (z-score) [27]: -0.38
- glycan array binding signal (z-score) [28]: -1.28
- glycan array binding signal (z-score) [29]: 3.32
- glycan array binding signal (z-score) [30]: 1.38
- glycan array binding signal (z-score) [31]: 1.94
- glycan array binding signal (z-score) [32]: 2.04
- glycan array binding signal (z-score) [33]: -0.025
- glycan array binding signal (z-score) [34]: 2.11
- glycan array binding signal (z-score) [35]: 2.27
- glycan array binding signal (z-score) [36]: 1.12
- glycan array binding signal (z-score) [37]: -0.028
